Experimental data: PubChem BioAssay AID1259424 (University of Nebraska Medical Center, 2018)
The whole screen tested about 14,000 reagents; this is a part drawn at random. 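Higher correlation or smaller distance means closer resemblance to KSR1 loss; control wells, including KSR1 knockdowns, recur on many plates.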 Not given: the time to read-out.

Screen: 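Find knockdowns that reproduce the expression shifts seen after KSR1 loss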 (primary screen)
Cells: human HCT116 colon cancer cells
Reagent: siRNA pool against human genes, 50 nM
Measurement: 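Six signature mRNAs by branched-DNA multiplex assay, scaled to two housekeeping genes and non-targeting median, log2; matched to mean KSR1 knockdown profile by Pearson correlation and euclidean distance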
Scale: mean correlation with KSR1 profile and KSR1 correlation: higher = expression change more like KSR1 knockdown; mean distance from KSR1 profile: higher = expression change less like KSR1 knockdown

gene,mean correlation with KSR1 profile,mean distance from KSR1 profile,"KSR1 correlation, replicate 1","KSR1 correlation, replicate 2","KSR1 correlation, replicate 3"
MAN2C1,-0.00648,2.58,0.0692,-0.26,-0.177
HLA-DRB3,-0.173,2,0.138,-0.427,-0.416
OR7A5,0.207,3,0.28,0.264,0.169
GEMIN8,-0.627,2.25,-0.657,-0.672,-0.612
CKMT2,0.554,1.31,0.609,0.748,-0.232
INSRR,0.236,1.92,0.161,0.384,0.166
TFB1M,0.514,1.99,0.448,0.575,0.529
FUT3,0.55,1.31,0.704,0.412,0.352
CDKN2B,0.571,1.32,0.464,0.71,0.482
ZFR,-0.82,1.84,-0.626,-0.644,-0.541
NR0B2,0.0686,1.38,-0.132,0.316,-0.00709
UPF1,0.43,1.47,0.381,0.388,0.291
TBX15,-0.398,2.77,-0.285,-0.474,-0.34

Next part, starting with the last 2 of the part before.
gene,mean correlation with KSR1 profile,mean distance from KSR1 profile,"KSR1 correlation, replicate 1","KSR1 correlation, replicate 2","KSR1 correlation, replicate 3"
UPF1,0.43,1.47,0.381,0.388,0.291
TBX15,-0.398,2.77,-0.285,-0.474,-0.34
HHATL,-0.3,1.99,-0.0342,-0.448,-0.448
SLC35D4,-0.0763,2.77,-0.0396,0.0931,-0.611
CXADR,0.25,1.22,0.142,0.76,-0.312
UPK3B,0.0941,2.7,-0.133,0.000519,0.236
RTP3,0.155,2.62,0.0992,0.0794,0.0585
SDCBP,0.841,0.882,0.766,0.625,0.824
REEP4,-0.176,2.38,-0.623,-0.21,-0.0927
